Data reported in patent US7927581B2, “Peptide-based multimeric targeted contrast agents” (Factor 1A, LLC, priority 2001, dated 2011).
At least one compound was matched to its structure with a doubt left. Positions of bridges follow the written chain, without caps; N, C: chain ends. Non-standard residues stand in square brackets, D forms with d. Residues, ends and D or L forms follow the SMILES beside them. *: point of attachment. Tyr(3-I) = N[C@@H](Cc1ccc(O)c(I)c1)C(=O)O; Hyp = O=C(O)[C@@H]1C[C@@H](O)CN1; Bn = c1ccc(C*)cc1

By UniProt entry, the sequences of proteins in these tests, tags left out. Residues count along the entry.
UniProt P02671, 124-216: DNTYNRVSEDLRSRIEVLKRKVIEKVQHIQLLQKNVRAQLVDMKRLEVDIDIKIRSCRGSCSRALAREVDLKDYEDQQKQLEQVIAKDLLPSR
UniProt P02671, 36-97: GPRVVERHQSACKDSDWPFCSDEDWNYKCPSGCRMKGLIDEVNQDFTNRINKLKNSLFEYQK
UniProt P02675, 164-491: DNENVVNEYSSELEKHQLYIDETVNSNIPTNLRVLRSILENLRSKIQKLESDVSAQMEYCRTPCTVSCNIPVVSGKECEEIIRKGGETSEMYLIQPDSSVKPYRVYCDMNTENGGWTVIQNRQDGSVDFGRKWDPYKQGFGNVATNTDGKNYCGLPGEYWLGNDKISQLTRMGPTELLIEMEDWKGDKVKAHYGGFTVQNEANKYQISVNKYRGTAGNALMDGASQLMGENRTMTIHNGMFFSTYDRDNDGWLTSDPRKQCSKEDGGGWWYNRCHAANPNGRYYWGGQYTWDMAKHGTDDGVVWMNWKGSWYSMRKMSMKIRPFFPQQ
UniProt P02675, 45-152: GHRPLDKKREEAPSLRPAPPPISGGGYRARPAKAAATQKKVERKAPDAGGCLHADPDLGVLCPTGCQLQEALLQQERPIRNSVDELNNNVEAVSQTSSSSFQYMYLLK
UniProt P02679, 114-432: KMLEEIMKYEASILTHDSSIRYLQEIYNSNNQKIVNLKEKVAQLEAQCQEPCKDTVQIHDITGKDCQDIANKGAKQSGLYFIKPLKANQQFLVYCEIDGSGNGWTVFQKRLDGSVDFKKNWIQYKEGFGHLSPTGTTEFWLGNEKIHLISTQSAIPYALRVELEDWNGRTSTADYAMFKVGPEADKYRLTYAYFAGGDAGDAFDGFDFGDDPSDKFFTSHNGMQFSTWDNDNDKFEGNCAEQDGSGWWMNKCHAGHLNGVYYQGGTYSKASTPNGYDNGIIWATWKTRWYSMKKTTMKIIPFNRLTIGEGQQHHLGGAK
UniProt P02679, 27-88: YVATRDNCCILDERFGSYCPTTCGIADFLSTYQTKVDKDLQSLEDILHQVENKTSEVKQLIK

biological target: DD(E) fragment of fibrin (Homo sapiens, UniProt P02671+P02675+P02679); experiment: Affinity of cyclized peptides to the DD(E) fragment of fibrin; format: binding

Kd, ≤ 0.4 µM:
CC[C@H](C)[C@H](NC(=O)[C@H](Cc1c[nH]cn1)NC(=O)[C@@H]1CSSC[C@H](NC(=O)[C@H](Cc2c[nH]cn2)NC(=O)[C@@H](N)COCc2ccccc2)C(=O)N2CCC[C@H]2C(=O)N[C@@H](Cc2ccc(O)cc2)C(=O)N[C@@H](CC(=O)O)C(=O)N[C@@H](CC(C)C)C(=O)N1)C(=O)N[C@@H](CC(C)C)C(N)=O [S(Bzl) H C P Y D L C H I L] (H-S(Bn)HCPYDLCHIL-NH2; disulfide 3-8; N-terminus and C-terminus assumed)

Kd, ≤ 0.2 µM:
CC[C@H](C)[C@H](NC(=O)[C@H](Cc1c[nH]cn1)NC(=O)[C@@H]1CSSC[C@H](NC(=O)[C@H](CCC(=O)O)NC(=O)[C@@H](N)Cc2c[nH]c3ccccc23)C(=O)N2C[C@H](O)C[C@H]2C(=O)N[C@@H](Cc2ccc(O)c(Cl)c2)C(=O)NCC(=O)N[C@@H](CC(C)C)C(=O)N1)C(=O)N[C@@H](CCC(N)=O)C(N)=O [W E C Hyp Y(3-Cl) G L C H I Q] (HELM PEPTIDE1{W.E.C.[Hyp].[O=C([C@H](Cc1ccc(O)c(Cl)c1)N[*:1])[*:2]].G.L.C.H.I.Q.[am]}$PEPTIDE1,PEPTIDE1,3:R3-8:R3$$$V2.0; N-terminus and C-terminus assumed), CC[C@H](C)[C@H](NC(=O)[C@H](Cc1c[nH]c2ccccc12)NC(=O)[C@@H]1CSSC[C@H](NC(=O)[C@@H](CCC(=O)O)NC(=O)[C@@H](N)[C@@H](C)O)C(=O)N2C[C@H](O)C[C@H]2C(=O)N[C@@H](Cc2ccc(O)c(Cl)c2)C(=O)NCC(=O)N[C@@H](CC(C)C)C(=O)N1)C(=O)N[C@@H](CCC(N)=O)C(N)=O [T D-E C Hyp Y(3-Cl) G L C W I Q] (HELM PEPTIDE1{T.[dE].C.[Hyp].[O=C([C@H](Cc1ccc(O)c(Cl)c1)N[*:1])[*:2]].G.L.C.W.I.Q.[am]}$PEPTIDE1,PEPTIDE1,3:R3-8:R3$$$V2.0; N-terminus and C-terminus assumed), CC[C@H](C)[C@H](NC(=O)[C@H](Cc1c[nH]c2ccccc12)NC(=O)[C@@H]1CSSC[C@H](NC(=O)[C@@H](CCC(=O)O)NC(=O)[C@H](N)Cc2ccccc2)C(=O)N2C[C@H](O)C[C@H]2C(=O)N[C@@H](Cc2ccc(O)c(Cl)c2)C(=O)NCC(=O)N[C@@H](CC(C)C)C(=O)N1)C(=O)N[C@@H](CCC(N)=O)C(N)=O [D-F D-E C Hyp Y(3-Cl) G L C W I Q] (HELM PEPTIDE1{[dF].[dE].C.[Hyp].[O=C([C@H](Cc1ccc(O)c(Cl)c1)N[*:1])[*:2]].G.L.C.W.I.Q.[am]}$PEPTIDE1,PEPTIDE1,3:R3-8:R3$$$V2.0; N-terminus and C-terminus assumed), CC(C)C[C@@H]1NC(=O)[C@H](CC(=O)O)NC(=O)[C@H](Cc2ccc(O)c(I)c2)NC(=O)[C@@H]2C[C@@H](O)CN2C(=O)[C@@H](NC(=O)[C@H](Cc2c[nH]cn2)NC(=O)[C@@H](N)Cc2ccccc2)CSSC[C@@H](C(=O)N[C@@H](Cc2c[nH]cn2)C(=O)N[C@H](C(N)=O)c2ccccc2)NC1=O [F H C Hyp Y(3-I) D L C H Phg] (HELM PEPTIDE1{F.H.C.[Hyp].[O=C([C@H](Cc1ccc(O)c(I)c1)N[*:1])[*:2]].D.L.C.H.[Phg].[am]}$PEPTIDE1,PEPTIDE1,3:R3-8:R3$$$V2.0; N-terminus and C-terminus assumed), CC[C@H](C)[C@H](NC(=O)[C@H](Cc1c[nH]cn1)NC(=O)[C@@H]1CSSC[C@H](NC(=O)[C@H](Cc2c[nH]cn2)NC(=O)[C@@H](N)Cc2ccccc2)C(=O)N2CCC[C@H]2C(=O)N[C@@H](Cc2ccc(O)c(Cl)c2)C(=O)N[C@@H](CC(=O)O)C(=O)N[C@@H](CC(C)C)C(=O)N1)C(=O)N[C@@H](CC(C)C)C(N)=O [F H C P Y(3-Cl) D L C H I L] (HELM PEPTIDE1{F.H.C.P.[O=C([C@H](Cc1ccc(O)c(Cl)c1)N[*:1])[*:2]].D.L.C.H.I.L.[am]}$PEPTIDE1,PEPTIDE1,3:R3-8:R3$$$V2.0; N-terminus and C-terminus assumed), Cc1cccc(C[C@H](NC(=O)[C@H](Cc2c[nH]cn2)NC(=O)[C@@H]2CSSC[C@H](NC(=O)[C@H](Cc3c[nH]cn3)NC(=O)[C@@H](N)Cc3ccccc3)C(=O)N3C[C@H](O)C[C@H]3C(=O)N[C@@H](Cc3ccc(O)c(I)c3)C(=O)N[C@@H](CC(=O)O)C(=O)N[C@@H](CC(C)C)C(=O)N2)C(N)=O)c1 [F H C Hyp Y(3-I) D L C H F(3-Me)] (HELM PEPTIDE1{F.H.C.[Hyp].[O=C([C@H](Cc1ccc(O)c(I)c1)N[*:1])[*:2]].D.L.C.H.[Cc1cccc(C[C@H](N[*:1])C(=O)[*:2])c1].[am]}$PEPTIDE1,PEPTIDE1,3:R3-8:R3$$$V2.0; N-terminus and C-terminus assumed)

Kd, ≤ 0.5 µM:
CC[C@H](C)[C@H](NC(=O)[C@H](Cc1c[nH]cn1)NC(=O)[C@@H]1CSSC[C@H](NC(=O)[C@H](Cc2c[nH]cn2)NC(=O)[C@@H](N)Cc2ccccc2)C(=O)N2C[C@H](O)C[C@H]2C(=O)N[C@@H](Cc2ccc(O)c(Cl)c2)C(=O)N[C@@H](Cc2ccc3ccccc3c2)C(=O)N[C@@H](CC(C)C)C(=O)N1)C(=O)N[C@@H](CC(C)C)C(N)=O [F H C Hyp Y(3-Cl) 2-Nal L C H I L] (HELM PEPTIDE1{F.H.C.[Hyp].[O=C([C@H](Cc1ccc(O)c(Cl)c1)N[*:1])[*:2]].[O=C([C@H](Cc1ccc2ccccc2c1)N[*:1])[*:2]].L.C.H.I.L.[am]}$PEPTIDE1,PEPTIDE1,3:R3-8:R3$$$V2.0; N-terminus and C-terminus assumed), CC[C@H](C)[C@H](NC(=O)[C@H](Cc1c[nH]cn1)NC(=O)[C@@H]1CSSC[C@H](NC(=O)[C@H](Cc2c[nH]cn2)NC(=O)[C@@H](N)Cc2ccccc2)C(=O)N2C[C@H](O)C[C@H]2C(=O)N[C@@H](Cc2ccc(O)cc2)C(=O)N[C@@H](CC(=O)O)C(=O)N[C@@H](CC(C)C)C(=O)N1)C(=O)N[C@@H](CC(C)C)C(N)=O [F H C Hyp Y D L C H I L] (HELM PEPTIDE1{F.H.C.[Hyp].Y.D.L.C.H.I.L.[am]}$PEPTIDE1,PEPTIDE1,3:R3-8:R3$$$V2.0; N-terminus and C-terminus assumed)

Kd, ≤ 0.1 µM:
CC[C@H](C)[C@H](NC(=O)[C@H](Cc1c[nH]cn1)NC(=O)[C@@H]1CSSC[C@H](NC(=O)[C@H](Cc2c[nH]cn2)NC(=O)[C@@H](N)Cc2ccc(O)cc2F)C(=O)N2C[C@H](O)C[C@H]2C(=O)N[C@@H](Cc2ccc(O)c(I)c2)C(=O)N[C@@H](CC(=O)O)C(=O)N[C@@H](CC(C)C)C(=O)N1)C(N)=O [Y(2-F) H C Hyp Y(3-I) D L C H I] (HELM PEPTIDE1{[N[C@@H](Cc1ccc(O)cc1F)C(=O)[*:2]].H.C.[Hyp].[O=C([C@H](Cc1ccc(O)c(I)c1)N[*:1])[*:2]].D.L.C.H.I.[am]}$PEPTIDE1,PEPTIDE1,3:R3-8:R3$$$V2.0; N-terminus and C-terminus assumed), CC[C@H](C)[C@H](NC(=O)[C@H](Cc1c[nH]cn1)NC(=O)[C@@H]1CSSC[C@H](NC(=O)[C@H](Cc2c[nH]cn2)NC(=O)[C@@H](N)Cc2ccc(F)c(F)c2)C(=O)N2C[C@H](O)C[C@H]2C(=O)N[C@@H](Cc2ccc(O)c(I)c2)C(=O)N[C@@H](CC(=O)O)C(=O)N[C@@H](CC(C)C)C(=O)N1)C(N)=O [F(34-F2) H C Hyp Y(3-I) D L C H I] (HELM PEPTIDE1{[N[C@@H](Cc1ccc(F)c(F)c1)C(=O)[*:2]].H.C.[Hyp].[O=C([C@H](Cc1ccc(O)c(I)c1)N[*:1])[*:2]].D.L.C.H.I.[am]}$PEPTIDE1,PEPTIDE1,3:R3-8:R3$$$V2.0; N-terminus and C-terminus assumed), CC[C@H](C)[C@H](NC(=O)[C@H](Cc1c[nH]cn1)NC(=O)[C@@H]1CSSC[C@H](NC(=O)[C@H](Cc2c[nH]cn2)NC(=O)[C@@H](N)Cc2ccc(OC)cc2)C(=O)N2C[C@H](O)C[C@H]2C(=O)N[C@@H](Cc2ccc(O)c(I)c2)C(=O)N[C@@H](CC(=O)O)C(=O)N[C@@H](CC(C)C)C(=O)N1)C(=O)N[C@@H](CC(C)C)C(N)=O [F(4-OMe) H C Hyp Y(3-I) D L C H I L] (H-Y(Me)HC[Hyp][Tyr(3-I)]DLCHIL-NH2; disulfide 3-8; N-terminus and C-terminus assumed), CC[C@H](C)[C@H](NC(=O)[C@H](Cc1c[nH]cn1)NC(=O)[C@@H]1CSSC[C@H](NC(=O)[C@H](Cc2c[nH]cn2)NC(=O)[C@@H](N)Cc2ccc(F)cc2)C(=O)N2C[C@H](O)C[C@H]2C(=O)N[C@@H](Cc2ccc(O)c(I)c2)C(=O)N[C@@H](CC(=O)O)C(=O)N[C@@H](CC(C)C)C(=O)N1)C(N)=O [F(4-F) H C Hyp Y(3-I) D L C H I] (HELM PEPTIDE1{[N[C@@H](Cc1ccc(F)cc1)C(=O)[*:2]].H.C.[Hyp].[O=C([C@H](Cc1ccc(O)c(I)c1)N[*:1])[*:2]].D.L.C.H.I.[am]}$PEPTIDE1,PEPTIDE1,3:R3-8:R3$$$V2.0; N-terminus and C-terminus assumed), CC[C@H](C)[C@H](NC(=O)[C@H](Cc1c[nH]cn1)NC(=O)[C@@H]1CSSC[C@H](NC(=O)[C@H](Cc2c[nH]cn2)NC(=O)[C@@H](N)c2ccc(O)cc2)C(=O)N2C[C@H](O)C[C@H]2C(=O)N[C@@H](Cc2ccc(O)c(I)c2)C(=O)N[C@@H](CC(=O)O)C(=O)N[C@@H](CC(C)C)C(=O)N1)C(N)=O [nTyr H C Hyp Y(3-I) D L C H I] (HELM PEPTIDE1{[N[C@H](C(=O)[*:2])c1ccc(O)cc1].H.C.[Hyp].[O=C([C@H](Cc1ccc(O)c(I)c1)N[*:1])[*:2]].D.L.C.H.I.[am]}$PEPTIDE1,PEPTIDE1,3:R3-8:R3$$$V2.0; N-terminus and C-terminus assumed)

Kd, ≤ 0.3 µM:
CC[C@H](C)[C@H](NC(=O)[C@H](Cc1ccc(O)cc1)NC(=O)[C@@H]1CSSC[C@H](NC(=O)[C@H](CCC(=O)O)NC(=O)[C@@H](N)Cc2c[nH]c3ccccc23)C(=O)N2C[C@H](O)C[C@H]2C(=O)N[C@@H](Cc2ccc(O)c(Cl)c2)C(=O)NCC(=O)N[C@@H](CC(C)C)C(=O)N1)C(=O)N[C@@H](CCC(N)=O)C(N)=O [W E C Hyp Y(3-Cl) G L C Y I Q] (HELM PEPTIDE1{W.E.C.[Hyp].[O=C([C@H](Cc1ccc(O)c(Cl)c1)N[*:1])[*:2]].G.L.C.Y.I.Q.[am]}$PEPTIDE1,PEPTIDE1,3:R3-8:R3$$$V2.0; N-terminus and C-terminus assumed)
